{"source": "patent US20040177664A1", "about": "“Production of a high quality organic-based fertilizer” (priority 2003, published 2004)", "assay": "Odor reduction of municipal sludge, headspace GC-MS and odor", "conditions": "for Notes (odor): 60.0° C.; for Peak area for line 94 at retention time of 1.93 and 1.74 minutes: second series, 5.00 g sludge no dilution, 0.5 ml or 0.5 g addition", "procedure": "Effectiveness of the treatments was evaluated through the GC-MS analysis of the treated and untreated sludge. Sludge (5.0 g) was placed into a 44 ml vial. After heating to 60.0° C. for 5.0 minutes a probe of gas was taken from the vial (0.5 ml) and injected into the GC-MS.\nHewlett-Packard (HP) GC 5890 coupled with an HP 5971 mass-spectrometer. The system incorporates an electron beam as an ion source. Ions are filtered through a glass with silver-coated quadruples.\nA DB5MS capillary chromatographic column is used and the MS is tuned with PFTBA in a Scan Mode (tune file: BFB.U).\nFor further characterization the peak area of the 94-ion was selected. The calibration was performed using dimethyldisulfide. A calibration curve is presented in the attached data.\nIn the first series, 6.00 g (±0.05) of the sludge with the addition of 10.0 ml of distilled water was used. For the treatment, we used potential oxidizers such as KNO3 and H2SO4 in different combinations.\nIn the second series we used 5.00 g (±0.01) of the sludge with no dilution. For the treatment we used additions of hydrogen peroxide (30%) −0.5 ml, sulfuric acid (98%), −0.5 ml, a combination of hydrogen peroxide and 0.5 ml and sulfuric acid 0. ml, ammonia (54%) −0.5ml, calcium hypochlorite −0.5 g.\nThe effectiveness of the additions is evaluated through decreasing the area of 94-ion signal with retention time around 1.94 minutes. We also investigated the influence of time.\nThe samples of the sludge (approximately 5.0 g) were placed into the vials and treated with additions of CaOCl2 at a temperature of 60.0° C.\nThe reproducibility of the treatment with calcium hypochlorite Ca(OCl)2 (CHC) on sludge was investigated. In all experiments, 5.0 g of sludge in a special vial was treated with an addition of percent of weight of odor reducer (0.05 g). After heating to 60.0° C. for 5.0 minutes, a sample of vapor over the sludge was taken and injected into the GC/MS. Total Ion Chromatograph signal with retention time […] were used for evaluation of the treatment corresponding to dimethylsulfide)."}
{"smiles": "[Ca+2].[O-]Cl.[O-]Cl", "note": "[CaOCl2, calcium hypochlorite]", "values": [{"measurement": "lowest effective concentration for eliminating the odor (Phase III)", "result": 0.5, "unit": "% weight"}, {"measurement": "dimethyldisulfide content after addition", "setting": "0.5% weight, from 3.5 ug/L", "result": "0.5 to 0.6", "unit": "µg/L"}, {"measurement": "Notes (odor)", "setting": "5.0025 g sludge, 0.0513 g CaOCl2, 5 min", "result": "No Odor"}, {"measurement": "Notes (odor)", "setting": "5.0716 g sludge, 0.0248 g CaOCl2, 10 min", "result": "Odor"}, {"measurement": "Notes (odor)", "setting": "5.0776 g sludge, 0.0256 g CaOCl2, 5 min", "result": "Odor"}, {"measurement": "Notes (odor)", "setting": "5.0803 g sludge, 0.0257 g CaOCl2, 2 min", "result": "Odor"}, {"measurement": "amount needed for odor elimination (Phase II conclusion)", "setting": "60° C., 5.0 minutes", "result": 1.0, "unit": "%"}, {"measurement": "Peak area for line 94 at retention time of 1.93 and 1.74 minutes", "result": "4,860 integration units (IU)"}]}
{"smiles": "O=S(=O)(O)O", "note": "[Trial H2SO4, sulfuric acid]", "values": [{"measurement": "Peak area for line 94 at retention time of 1.93 and 1.74 minutes", "result": "8,400 integration units (IU)"}]}
